Values quoted from earlier work as cited in patent publication US11129897B2, “Fast-acting plant-based medicinal compounds and nutritional supplements” (RECEPTOR HOLDINGS, INC., priority 2016, dated 2021).

Conditions: in words; cited from earlier work

Row | SMILES | solubility in water
1 | C=C(C)[C@@H]1CCC(C)=C[C@H]1c1c(O)cc(CCCCC)cc1O [CBD, cannabidiol] | very low or no solubility in water
2 | CCCCCc1cc(O)c2c(c1)OC(C)(C)[C@@H]1CCC(C)=C[C@@H]21 [THC, delta-9-tetrahydrocannabinol] | very low or no solubility in water
